The values that follow come from PubChem BioAssay AID493014 (National Center for Advancing Translational Sciences (NCATS), 2011).

The other results are listed elsewhere or left out. Further columns of the screen follow, without active or inactive calls. Most of these compounds were active or inconclusive in the main read-out, so they are no random draw. The note in brackets gives the kind of curve behind each potency; many fits are weak.

A short description of this assay: qHTS Assay to Find Inhibitors of Chronic Active B-Cell Receptor Signaling. As to conditions: ABC-DLBCL IkBa-CBG/CBR reporter, luminescence ratio (green luciferase fused to IkBa over red control in TMD8 lymphoma cells), 4 h. The method in brief:
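TMD8 ABC-DLBCL cells carrying doxycycline-inducible green luciferase fused to IkappaBalpha plus unfused red luciferase were exposed to compounds (up to 46 uM) for 4 hrs at 37C. Activity came from the overlap-corrected green/red luminescence ratio.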
On the technique in general: Quantitative high-throughput screening tests each substance at several concentrations.

Setting [1] is: measured here: CBR red luminescence, cell number.
Setting [2] is: measured here: IkBa-CBG green luminescence.

As usually defined, the AC50 is the midpoint of the concentration-response curve, whichever way the signal moves. On to `COc1cc(C(=O)NCCN2CCN(C(=O)c3cc(OC)c(OC)c(OC)c3)CC2)cc(OC)c1OC`, for which the AC50 under setting [1] is 2.82 µM [rising, partial curve]. The same measure, in the same setting: in the case of `O=C(Nc1cccnc1Cl)c1cc2ccccc2o1` it was 35.5 µM [falling, single point].

For the molecule `O=C(N/N=C/c1cccc2nccnc12)c1ccccc1O`, the half-maximal activity concentration (AC50) under setting [1] was 5.01 µM [falling, partial curve]. The same measure, in the same setting: in the case of `COc1ccccc1N1CCN(CC(=O)Nc2ccc(S(=O)(=O)N3CCCCCC3)cc2)CC1` it was 18.4 µM [rising, partial curve, poor fit]; in that of `CN1CCN(CC#CC2(O)CCCCC2)CC1`, 35.5 µM [falling, single point]. For the molecule `O=C(CSc1cn[nH]n1)Nc1cccc(C(=O)O)c1`, the concentration at half-maximal activity (AC50) under setting [1] is 8.91 µM [falling, partial curve, poor fit]. On the same count and under the same terms, next, `O=C(NNC(=S)NC1CC2CCC1C2)c1ccc(Cl)cc1` (configuration not stated): 10 µM [falling, partial curve]; `Cc1ccc2c(c1)C(c1ccccc1)N(C(=O)c1ccc(Br)o1)CC(=O)N2` (configuration not stated): 23.1 µM [falling, single point]; `Cc1c(C)c(C)c(/C=[N+](/C)[O-])c(C)c1C`: 18.4 µM [falling, single point]. `CN1CCCC1CCNc1ccc2c(=O)c3ccccc3oc2c1` (configuration not stated): the AC50 is, setting by setting: under setting [1], 22.4 µM [falling, single point]; under setting [2], 20 µM [rising, single point]. Consider `CCOC(=O)C(CSCc1ccccc1)NC(=O)OC(C)(C)C` (configuration not stated), for which the concentration at half-maximal activity (AC50) under setting [1] was 6.31 µM [falling, single point]. Still for that read-out and setting: next, `CC(C)c1nc2sc3c(=O)[nH]cnc3c2c2c1CCC2`: 5.8 µM [rising, partial curve]; `CCCCN1C(=O)N(C)C2NC(=O)NC21` (configuration not stated): 0.231 µM [falling, full curve, poor fit]. Same read-out and setting: in the case of `O=C(CN1C(=O)CCS(=O)(=O)c2ccccc21)Nc1ccc(F)cc1` it was 20 µM [falling, single point]; in that of `Cc1nc2sc(C(c3ccco3)N3CCN(C(c4ccccc4)c4ccccc4)CC3)c(O)n2n1` (configuration not stated), 29.1 µM [falling, single point]; in that of `COc1ccccc1OC(=O)Cc1cccc2ccccc12`, 12.6 µM [rising, partial curve]. The same measure, in the same setting: in the case of `CCOC(=O)N1CCN(CC(=O)Nc2cc(OC)c(OC)cc2C#N)CC1` it was 31.6 µM [rising, single point]; in that of `ONC(=Nc1ccc(Cl)cc1)c1ccc(Cl)cc1`, 7.31 µM [rising, partial curve, poor fit]. As for `Cc1ccc(-c2nc(N)n(C(=O)c3ccco3)n2)cc1`, the AC50 under setting [1] is 35.5 µM [falling, single point]. The same measure, in the same setting: next, `COc1ccc(/C=C/C(=O)N(C)c2ccccc2C(=O)O)cc1`: 22.4 µM [rising, partial curve, poor fit]. Same read-out and setting: in the case of `Cc1cccc(NC(c2ccc(C)s2)c2ccc3ccc(C)nc3c2O)n1` (configuration not stated) it was 14.6 µM [falling, single point]; in that of `Cc1cccc(N2CCN(C(=O)CNC(=O)Cc3ccccc3)CC2)c1C`, 29.1 µM [falling, single point]; in that of `N#Cc1cc(-c2ccccc2)nc(Oc2ccc(Cl)cc2)n1`, 10.3 µM [rising, partial curve, poor fit]. Consider `N#CCCN(C(=O)COC(=O)c1ccc2c(c1)OCO2)c1ccccc1`, for which the concentration at half-maximal activity (AC50) under setting [1] was 3.66 µM [rising, single point]. Still for that read-out and setting: next, `CCN(CC)c1nc(Oc2ccc(C(=O)NN)cc2)nc(Oc2ccc(C(=O)NN)cc2)n1`: 5.62 µM [falling, partial curve, poor fit]. Still for that read-out and setting: next, `O=C(N/N=C/c1ccc(Br)cc1)c1ccc(Br)o1`: 13 µM [falling, partial curve, poor fit]; `Cc1noc(C(=O)Nc2ccc(F)cc2F)c1Cl`: 8.91 µM [falling, partial curve]. For the molecule `COC(=O)c1[nH]c2ccc(C)cc2c1NC(=O)CN1CCN(C(=O)c2ccccc2)CC1`, the half-maximal activity concentration (AC50) under setting [1] is 0.82 µM [rising, partial curve, poor fit]. On the same count and under the same terms, in the case of `COc1ccccc1CNC(=O)C(=O)c1cn(CC(=O)N2CCOCC2)c2ccccc12` it was 3.55 µM [falling, partial curve]. Still for that read-out and setting: in the case of `O=C(O)c1ccc(/C=N/NC(=O)c2ccc3c(c2)OCCO3)cc1` it was 8.91 µM [falling, partial curve, poor fit]; in that of `Cc1ccc(C)c(N2C(=O)CS/C2=N\NC(=O)c2ccccc2Cl)c1`, 29.1 µM [falling, single point]; in that of `Clc1ccc2nc(N3CCN(c4ccccc4)CC3)sc2c1`, 0.0291 µM [rising, full curve, poor fit]. The same measure, in the same setting: in the case of `CCC(C)NS(=O)(=O)c1ccc(OCC(=O)N2CCC(C)CC2)cc1` (configuration not stated) it was 9.2 µM [rising, partial curve, poor fit]; in that of `CCCCCCNC(=O)c1ccc(Br)o1`, 7.31 µM [rising, partial curve, poor fit].

As to `Cc1cc(=O)c2c(o1)CC(C)(C)CC2=O`, the concentration at half-maximal activity (AC50) under setting [1] is 8.2 µM [rising, partial curve, poor fit]. For the molecule `CN(C)C(=O)C(CCN1CCC(O)(c2ccc(Cl)cc2)CC1)(c1ccccc1)c1ccccc1`, the AC50 by setting is: under setting [1], 18.4 µM [falling, partial curve]; under setting [2], 12.6 µM [rising, partial curve, poor fit]. For the molecule `COc1ccccc1NC(=O)Cc1noc(CSc2cc(C)c3ccccc3n2)n1`, the concentration at half-maximal activity (AC50) under setting [1] was 32.6 µM [falling, single point]. With `COc1ccccc1/C=C/C1(C(=O)NC2CCCC2)CC(=O)N1c1ccc(F)cc1` (configuration not stated), the AC50 under setting [1] is 1.3 µM [falling, partial curve, poor fit] and the AC50 under setting [2] is 0.82 µM [rising, full curve, poor fit]. Consider `O=C(Nc1ccc(Cl)cc1)Nc1nc(-c2ccccc2)cs1`, for which, under setting [1], the AC50 was 1.12 µM [rising, full curve, poor fit]. As for `CN(c1ccccc1)S(=O)(=O)c1cccc(NC(=O)Cc2c(F)cccc2Cl)c1`, the AC50 under setting [1] was 16.4 µM [falling, single point]. Turning to `COc1ccc(N2CCN(CC(O)COc3ccc(F)cc3)CC2)cc1` (configuration not stated), under setting [1], the half-maximal activity concentration (AC50) is 3.55 µM [rising, single point]. In the case of `CCN(CC)C(=O)Cn1c(=O)oc2ccccc21`, under setting [1], the AC50 is 2.82 µM [falling, single point]. Same read-out and setting: next, `COC(=O)c1ccc(COc2ccc(Cl)cc2)o1`: 4.47 µM [rising, full curve, poor fit]. Same read-out and setting: next, `Cc1cccc(N2CC(C(=O)O)CC2=O)c1` (configuration not stated): 9.2 µM [falling, partial curve, poor fit]. In the case of `CCOC(=O)N1CCN(C(=O)c2ccc(Cn3c(=S)[nH]c4cc(C(=O)OC)ccc4c3=O)cc2)CC1`, the AC50 under setting [1] was 14.1 µM [falling, partial curve]. Same read-out and setting: in the case of `O=C1NN=C(c2ccc(Cl)cc2)CC1c1c[nH]c2ccccc12` (configuration not stated) it was 12.6 µM [falling, partial curve]; in that of `CCc1nc(Nc2ccccc2F)c2oc3ccccc3c2n1`, 0.794 µM [falling, full curve].

Consider `O=C(N/N=C/c1cccs1)c1c[nH]c2ccccc12`, for which, under setting [1], the concentration at half-maximal activity (AC50) was 9.2 µM [falling, partial curve]. The same measure, in the same setting: in the case of `CCOC(=O)c1cc(-c2cccc(C(F)(F)F)c2)nc2nc(SC)[nH]c(=O)c12` it was 3.66 µM [rising, partial curve, poor fit]; in that of `Cc1nc2sc(C)c(C)c2c(=O)o1`, 6.51 µM [falling, single point]; in that of `CCN(CC)S(=O)(=O)c1ccc2c(c1)N(CC(=O)NCCCN1CCN(c3cc(C)ccc3C)CC1)C(=O)CO2`, 8.91 µM [falling, partial curve, poor fit]. Same read-out and setting: in the case of `CC(=O)Nc1ccc(S(=O)(=O)N2CCC(c3nc4c(nnn4Cc4ccccc4Cl)c(=O)[nH]3)CC2)cc1` it was 7.08 µM [falling, full curve, poor fit]; in that of `Cc1cc(C)c2c(N)c(C(=O)N/N=C/c3cccs3)sc2n1`, 0.562 µM [falling, full curve, poor fit]. In the case of `COc1cc([N+](=O)[O-])cc(/C=N/NC(=O)c2cc(-c3ccccc3)nc3ccccc23)c1O`, the AC50 reads like this: under setting [1], 20 µM [rising, single point]; under setting [2], 5.01 µM [falling, single point]. As to `COc1ccccc1OCc1ccc(C(=O)Nc2ccccc2F)cc1`, the concentration at half-maximal activity (AC50) under setting [1] was 1.84 µM [falling, full curve, poor fit].

`O=C1N(c2ccccc2)C2CS(=O)(=O)CC2N1c1ccc(Cl)c(Cl)c1` (configuration not stated): under setting [1], the half-maximal activity concentration (AC50) is 17.8 µM [falling, partial curve, poor fit].

`CC(C)CC1CC(=O)OC1(C)C(=O)CSc1nc2ccccc2s1` (configuration not stated): under setting [1], the AC50 is 17.8 µM [rising, single point]. Still for that read-out and setting: in the case of `CCCN1C(=O)C2(C(C(=O)c3ccc(C)o3)=C(O)C(=O)N2CCCOC)c2ccccc21` (configuration not stated) it was 10 µM [rising, partial curve, poor fit]; in that of `COc1cc(/C=C(\C#N)C(=O)NC2CCCCC2C)ccc1OS(=O)(=O)c1ccc(C)cc1` (configuration not stated), 14.6 µM [falling, single point]. As to `COc1cc(/C=C/C(=O)Nc2ccc(OC)c(S(=O)(=O)N3CCOCC3)c2)ccc1OC(F)F`, the AC50 under setting [1] was 4.61 µM [falling, single point]. Turning to `CCOC(=O)c1csc(Nc2nc3ccc(F)cc3s2)n1`, the AC50 under setting [1] was 0.398 µM [rising, full curve]. Still for that read-out and setting: in the case of `COc1ccc(N2CCN(C(=O)c3cc4cc(Cl)ccc4[nH]3)CC2)cc1` it was 22.4 µM [falling, single point]; in that of `O=C(Oc1ccc(Br)cc1)c1cccnc1`, 35.5 µM [rising, single point].
